Results on 44 substances are retold here after patent US12612429 (dated 2026).

The nature of the series: general procedure: solution-phase peptide synthesis; HATU/DIEA.
Setting [1] is: coupling step, formic acid salt.
Setting [2] is: late stage modification step, TFA salt or formic acid salt.
[3] abbreviates: late stage modification step, TFA salt.
[4] abbreviates: late stage modification step, formic acid salt.
Setting [5] is: coupling step, TFA salt or formic acid salt.

In the case of “(S)-methyl 2-((2R,3R)-3-((S)-1-((3R,4S,5S)-4-((2S,3S)-3-azido-2-((S)-2-(dimethylamino)-3-methylbutanamido)-N-methylbutanamido)-3-methoxy-5-methylheptanoyl)pyrrolidin-2-yl)-3-methoxy-2-methylpropanamido)-3-phenylpropanoate”, the step yield under setting [1] is recorded as 49%.

Turning to “(S)-methyl 2-((2R,3R)-3-((S)-1-((3R,4S,5S)-4-((R)-2-((S)-2-(dimethylamino)-3-methylbutanamido)-3-mercapto-N-methylpropanamido)-3-methoxy-5-methylheptanoyl)pyrrolidin-2-yl)-3-methoxy-2-methylpropanamido)-3-phenylpropanoate”, under setting [2], the step yield was found to be 3%.

In the case of “(S)-methyl 2-((2R,3R)-3-((S)-1-((3R,4S,5S)-4-((S)-2-((S)-2-(dimethylamino)-3-hydroxypropanamido)-N,3-dimethylbutanamido)-3-methoxy-5-methylheptanoyl)pyrrolidin-2-yl)-3-methoxy-2-methylpropanamido)-3-phenylpropanoate”, the step yield under setting [2] was found to be 18%.

Regarding “(S)-methyl 2-((2R,3R)-3-((S)-1-((3R,4S,5S)-4-((S)-2-((S)-2-(dimethylamino)-3-methylbutanamido)-3-hydroxy-N-methylpropanamido)-3-methoxy-5-methylheptanoyl)pyrrolidin-2-yl)-3-methoxy-2-methylpropanamido)-3-phenylpropanoate”, the step yield under setting [3] is recorded as 47%.

In the case of “(S)-methyl 2-((2R,3R)-3-((S)-1-((3R,4S,5S)-4-((S)-3-amino-2-((S)-2-(dimethylamino)-3-methylbutanamido)-N-methylpropanamido)-3-methoxy-5-methylheptanoyl)pyrrolidin-2-yl)-3-methoxy-2-methylpropanamido)-3-phenylpropanoate”, the step yield under setting [4] is 50%.

Turning to “(S)-methyl 2-((2R,3R)-3-((S)-1-((3R,4S,5S)-4-((S)-3-azido-2-((S)-2-(dimethylamino)-3-methylbutanamido)-N-methylpropanamido)-3-methoxy-5-methylheptanoyl)pyrrolidin-2-yl)-3-methoxy-2-methylpropanamido)-3-phenylpropanoate”, the step yield (coupling step, TFA salt) turned out to be 7%.

For the substance “(S)-methyl 2-((2R,3R)-3-((S)-1-((3R,4S,5S)-4-((S)-4-amino-2-((S)-2-(dimethylamino)-3-methylbutanamido)-N-methylbutanamido)-3-methoxy-5-methylheptanoyl)pyrrolidin-2-yl)-3-methoxy-2-methylpropanamido)-3-phenylpropanoate”, under setting [4], the step yield amounted to 13%.

For the substance “(S)-methyl 2-((2R,3R)-3-((S)-1-((3R,4S,5S)-4-((S)-4-azido-2-((S)-2-(dimethylamino)-3-methylbutanamido)-N-methylbutanamido)-3-methoxy-5-methylheptanoyl)pyrrolidin-2-yl)-3-methoxy-2-methylpropanamido)-3-phenylpropanoate”, the step yield (coupling step, TFA salt) is listed as 7%.

Regarding “(S)—N-((3R,4S,5S)-1-((S)-2-((1R,2R)-3-(((S)-1-amino-1-oxo-3-phenylpropan-2-yl)amino)-1-methoxy-2-methyl-3-oxopropyl)pyrrolidin-1-yl)-3-methoxy-5-methyl-1-oxoheptan-4-yl)-2-((2S,3R)-2-(dimethylamino)-3-hydroxybutanamido)-N,3-dimethylbutanamide”, the step yield under setting [2] came to 70%.

“(S)—N-((3R,4S,5S)-1-((S)-2-((1R,2R)-3-(((S)-1-amino-1-oxo-3-phenylpropan-2-yl)amino)-1-methoxy-2-methyl-3-oxopropyl)pyrrolidin-1-yl)-3-methoxy-5-methyl-1-oxoheptan-4-yl)-2-((S)-2-(dimethylamino)-3-hydroxypropanamido)-N,3-dimethylbutanamide”: under setting [2], the step yield is 83%.

On to “(S)—N—((S)-3-amino-1-(((3R,4S,5S)-3-methoxy-1-((S)-2-((1R,2R)-1-methoxy-2-methyl-3-oxo-3-((2-(pyridin-2-yl)ethyl)amino)propyl)pyrrolidin-1-yl)-5-methyl-1-oxoheptan-4-yl)(methyl)amino)-1-oxopropan-2-yl)-2-(dimethylamino)-3-methylbutanamide”, for which the step yield under setting [3] is reported as 75%.

For Dov-Abu(3-N3)-Dil-Dap-Phe-NH2, under setting [2], the step yield was found to be 33%.

As for Dov-Abu(3-N3)-Dil-Dap-Phe-NHt-Bu, the step yield under setting [2] came out at 59%.

Take Dov-Asp(OBzl)-Dil-Dap-Phe-OMe: under setting [5], the step yield was found to be 77%.

As to “Dov-Dab(Fmoc)-Dil-Dap-2-(2-chlorophenyl)ethylamine”, the step yield under setting [5] came out at 26%.

In the case of “Dov-Dab(Fmoc)-Dil-Dap-2-(4-chlorophenyl)ethylamine”, the step yield under setting [5] is reported as 61%.

Turning to “Dov-Dab(Fmoc)-Dil-Dap-(1R,2S)-(−)-Norephedrine”, the step yield under setting [5] was found to be 81%.

Consider “Dov-Dpr(Fmoc)-Dil-Dap-2-(2-pyridyl)ethylamine”, for which the step yield (coupling step, TFA salt) came to 20%.

In the case of Dov-Dpr(Fmoc)-Dil-Dap-Phe-OMe, the step yield under setting [5] came to 56%.

Regarding Dov-Lys(Fmoc)-Dil-Dap-Phe-OMe, the step yield under setting [5] is 70%.

“Dov-Ser(Bzl)-Dil-Dap-2-(2-pyridyl)ethylamine”: the step yield (coupling step, TFA salt) was 68%.

Consider Dov-Ser(Bzl)-Dil-Dap-Phe-OMe, for which the step yield (coupling step, TFA salt) is recorded as 54%.

For the substance Dov-Ser(Bzl)-Dil-Dap-Phe-OtBu, the step yield under setting [5] was determined as 98%.

As for “Dov-Thr(Bzl)-Dil-Dap-2-(2-pyridyl)ethylamine”, for the setting “coupling step, TFA salt”, the step yield was found to be 63%.

As for “Dov-Thr(Bzl)-Dil-Dap-(1R,2S)-(−)-Norephedrine”, under setting [5], the step yield came out at 37%.

As to Dov-Thr(Bzl)-Dil-Dap-Phe-OMe, for the setting “coupling step, TFA salt”, the step yield is reported as 63%.

With Dov-Thr(Bzl)-Dil-Dap-Phe-OtBu, the step yield under setting [5] was found to be 78%.

As for Fmoc-MeVal-Abu(3-N3)-Dil-Dap-Phe-NH2, the step yield under setting [1] amounted to 75%.

Take Fmoc-MeVal-Abu(3-N3)-Dil-Dap-Phe-OH: the step yield under setting [3] came to 77%.

Take Fmoc-MeVal-Abu(3-N3)-Dil-Dap-Phe-OMe: the step yield under setting [5] was found to be 77%.

For Fmoc-MeVal-Abu(3-N3)-Dil-Dap-Phe-OtBu, under setting [1], the step yield worked out at 97%.

For the substance “N,N-dimethylSer(Bzl)-Val-Dil-Dap-Phe-OMe”, the step yield under setting [5] is given as 49%.

In the case of “N,N-dimethylThr(Bzl)-Val-Dil-Dap-Phe-OMe”, the step yield under setting [5] was 62%.

Take “N-Boc-N-hydroxyVal-Val-Dil-Dap-2-(2-pyridyl)ethylamine”: under setting [5], the step yield amounted to 43%.

With “methyl ((2R,3R)-3-((S)-1-((3R,4S,5S)-4-((2S,3S)-3-azido-2-((S)-2-(dimethylamino)-3-methylbutanamido)-N-methylbutanamido)-3-methoxy-5-methylheptanoyl)pyrrolidin-2-yl)-3-methoxy-2-methylpropanoyl)-L-isoleucinate”, under setting [5], the step yield amounted to 60%.

For the substance “methyl ((2R,3R)-3-((S)-1-((3R,4S,5S)-4-((2S,3S)-3-azido-2-((S)-2-(dimethylamino)-3-methylbutanamido)-N-methylbutanamido)-3-methoxy-5-methylheptanoyl)pyrrolidin-2-yl)-3-methoxy-2-methylpropanoyl)-L-valinate”, under setting [5], the step yield is given as 55%.

For “methyl ((2R,3R)-3-((S)-1-((3R,4S,5S)-4-((2S,3S)-3-azido-N-methyl-2-((S)-3-methyl-2-(methylamino)butanamido)butanamido)-3-methoxy-5-methylheptanoyl)pyrrolidin-2-yl)-3-methoxy-2-methylpropanoyl)-L-phenylalaninate”, the step yield under setting [2] came to 103%.

As to “methyl ((2R,3R)-3-((S)-1-((3R,4S,5S)-4-((2S,4S)-4-azido-1-(dimethyl-L-valyl)-N-methylpyrrolidine-2-carboxamido)-3-methoxy-5-methylheptanoyl)pyrrolidin-2-yl)-3-methoxy-2-methylpropanoyl)-L-phenylalaninate”, the step yield under setting [5] worked out at 18%.

On to “methyl ((2R,3R)-3-((S)-1-((3R,4S,5S)-4-((S)-2-((S)-2-(dimethylamino)-3-methylbutanamido)-N,3-dimethylbutanamido)-3-methoxy-5-methylheptanoyl)pyrrolidin-2-yl)-3-methoxy-2-methylpropanoyl)-L-serinate”, for which, under setting [5], the step yield was determined as 74%.

For the substance “methyl ((2R,3R)-3-((S)-1-((3R,4S,5S)-4-((S)-2-((S)-2-(dimethylamino)-3-methylbutanamido)-N-methylpent-4-ynamido)-3-methoxy-5-methylheptanoyl)pyrrolidin-2-yl)-3-methoxy-2-methylpropanoyl)-L-phenylalaninate”, under setting [5], the step yield is given as 3%.

As for “methyl ((2R,3R)-3-((S)-1-((3R,4S,5S)-4-((S)-3-azido-N-methyl-2-((S)-3-methyl-2-(methylamino)butanamido)propanamido)-3-methoxy-5-methylheptanoyl)pyrrolidin-2-yl)-3-methoxy-2-methylpropanoyl)-L-phenylalaninate”, the step yield under setting [5] was determined as 1%.

Take “methyl ((2R,3R)-3-((S)-1-((3R,4S,5S)-4-((S)-6-amino-2-((S)-2-(dimethylamino)-3-methylbutanamido)-N-methylhexanamido)-3-methoxy-5-methylheptanoyl)pyrrolidin-2-yl)-3-methoxy-2-methylpropanoyl)-L-phenylalaninate”: under setting [2], the step yield is reported as 51%.

Turning to “tert-butyl ((2R,3R)-3-((S)-1-((3R,4S,5S)-4-((2S,3S)-3-amino-2-((S)-2-(dimethylamino)-3-methylbutanamido)-N-methylbutanamido)-3-methoxy-5-methylheptanoyl)pyrrolidin-2-yl)-3-methoxy-2-methylpropanoyl)-L-phenylalaninate”, under setting [4], the step yield amounted to 70%.

With “tert-butyl ((2R,3R)-3-((S)-1-((3R,4S,5S)-4-((2S,3S)-3-azido-2-((S)-2-(dimethylamino)-3-methylbutanamido)-N-methylbutanamido)-3-methoxy-5-methylheptanoyl)pyrrolidin-2-yl)-3-methoxy-2-methylpropanoyl)-L-phenylalaninate”, under setting [1], the step yield came to 72%.
